Data source: PubChem BioAssay AID720505 (Drosophila RNAi Screening Center, 2013)

Aim: 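Genes needed for store-operated calcium entry in fly cells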 (primary screen)
Cells: Drosophila S2R+ cells
Reagent: long dsRNA against Drosophila genes
Conditions: thapsigargin (2 µM) in calcium-free buffer to empty internal stores, then 2 mM calcium added back
Measurement: 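Fluo-4 signal in 384-well plates read on a FLIPR after thapsigargin (2 µM, calcium-free) store depletion and 2 mM calcium add-back; unnormalised mean endpoint per well; screen run twice, selected wells retested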
Scale: calcium signal and retest calcium signal: higher = more calcium entry after store depletion
Rule for the call: 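Knock-downs counted as hits when calcium entry dropped relative to STIM1 positive and Rho1 negative controls present on each plate; roughly 1500 genes called, with reductions of differing size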
Meaning of the calls: active = called as lowering calcium entry; inactive = not called
The screen tested about 20,000 reagents; below is a random part of those with a known target gene and a result. Over the whole deposit, about 2,100 (10%) were called active. 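Raw plate signals without normalisation; calls rest on control-based scores that were not deposited; replicate 2 separates called from uncalled poorly.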 Not given: the amount of reagent, the time to read-out.

Target gene,DRSC id,"calcium signal, replicate 1","calcium signal, replicate 2","retest calcium signal, replicate 1","retest calcium signal, replicate 2",Outcome
CG15571,DRSC18059,152,122,,,inactive
Lasp,DRSC10379,84.8,87.3,,,active
fs(1)M3,DRSC18381,176,127,,,inactive
JMJD6,DRSC15787,203,273,,,inactive
Sas-4,DRSC12505,94.8,147,,,inactive
Ubc10,DRSC07568,119,120,,,inactive
CG12239,DRSC17832,152,86.9,,,inactive
Cyp6g1,DRSC07386,175,141,,,inactive
dpr6,DRSC10162,102,110,,,inactive
dpr6,DRSC10163,104,122,,,inactive
term,DRSC21730,152,112,,,inactive
Dbp80,DRSC22034,109,200,,,inactive
CG31446,DRSC13111,,,,,active
Pde9,DRSC19746,127,108,,,inactive
Pde9,DRSC19874,164,117,,,inactive
Pde9,DRSC19875,170,98.5,,,inactive
Pde9,DRSC19876,102,110,,,inactive
CG6083,DRSC10580,87.9,75,,,inactive
CG14411,DRSC19597,91.7,96.2,,,inactive
CG4891,DRSC01936,103,91.1,,,inactive
Sec20,DRSC12295,114,128,,,inactive
Ccm3,DRSC15711,128,125,,,inactive
mthl8,DRSC08211,71,160,,,active
mthl8,DRSC08311,79.3,101,,,inactive
Polr3I,DRSC19922,94,80.5,,,inactive
CR40354,DRSC20923,71,11784,,,inactive
Muc26B,DRSC02322,67.9,160,,,active
CG13481,DRSC10023,86.4,128,,,inactive
eIF3a,DRSC12339,77.7,139,,,inactive
CG6340,DRSC19987,63.6,114,4737,124,active
CG11808,DRSC06088,107,104,,,inactive
TwdlO,DRSC16043,66.7,87,,,active
CG18622,DRSC15360,132,144,,,inactive
aph-1,DRSC00547,113,167,,,inactive

5 successive entries already listed, for reference:
Target gene,DRSC id,"calcium signal, replicate 1","calcium signal, replicate 2","retest calcium signal, replicate 1","retest calcium signal, replicate 2",Outcome
mthl8,DRSC08211,71,160,,,active
mthl8,DRSC08311,79.3,101,,,inactive
Polr3I,DRSC19922,94,80.5,,,inactive
CR40354,DRSC20923,71,11784,,,inactive
Muc26B,DRSC02322,67.9,160,,,active
